# Measured values: PubChem BioAssay AID445 (National Center for Advancing Translational Sciences (NCATS), 2006)
# This is one part of the list. These are further read-outs of the screen, such as a control signal, another cell line or another target. No call is given for them. The list favours compounds with an active or inconclusive main result. The note in brackets gives the kind of curve behind each potency; many fits are weak.
# Test: IkB Signaling
# Conditions: ABC-DLBCL IkBa-CBG/CBR dual luciferase ratio (green luciferase fused to IkBa over red control in OCI-Ly3 lymphoma cells), 4 h; measured here: control luc red channel unless noted
# Outline: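 Luminescence ratio of IκBα-fused green versus native red beetle luciferase in OCI-Ly3 cells, 4 h post-doxycycline with compound; red signal alone, scaled from basal (0%) to zero light (-100%), flagged nonspecific or cytotoxic effects.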
row,SMILES,AC50
1,CCC(=O)N1c2ccccc2CC1C(=O)N1CCN(c2cccc(Cl)c2)CC1 (stereo not given),"12.6 µM [falling, partial curve]"
2,COc1cccc(-c2nc(CS(=O)(=O)CC(=O)N3CCc4ccccc4C3)c(C)o2)c1,"12.6 µM [falling, partial curve]"
3,CC(C)Cc1nnc(NC(=O)CCN2C(=O)c3ccccc3C2=O)s1,"10 µM [falling, partial curve]"
4,COc1cc(-c2nc(-c3ccccn3)no2)cc(OC)c1OC,"7.94 µM [falling, full curve]"
5,COc1ccc2occ(C(=O)c3coc4ccc(O)c(CN(C)C)c34)c2c1,"10 µM [falling, partial curve]"
6,Cc1nn2c(=O)cc(COC(=O)c3ccc(NC(=O)c4cccc(Br)c4)cc3)nc2s1,"2.51 µM [rising, partial curve]"
7,c1csc(-c2csc3nc(CN4CCOCC4)nc(NCc4ccc5c(c4)OCO5)c23)c1,"39.8 µM [falling, single point]"
8,COC(=O)c1ccccc1NC(=O)Cn1c(=O)n(CCC(=O)NCc2ccccc2OC)c(=O)c2ccccc21,"39.8 µM [rising, single point] [measured here: IkB-luc green channel]"
9,COc1cc(OC)cc(-c2cc3nc(C)c(CCC(=O)Nc4ccc(C(C)=O)cc4)c(C)n3n2)c1,"3.98 µM [falling, partial curve]"
10,CC(C)c1ccc(CNc2nc(-c3ccco3)nn2C(=O)c2ccc([N+](=O)[O-])cc2)cc1,"10 µM [falling, partial curve]"
11,CSCCC(NS(=O)(=O)c1ccc2c(c1)oc(=O)n2C)C(=O)Nc1ccc(Cl)cc1 (stereo not given),"20 µM [falling, single point]"
12,Cc1ccc(C(=O)Nc2ccc(Cl)cn2)cc1,"15.8 µM [falling, single point]"
13,COCc1cc(C)nc2sc3c(c12)NC(c1ccc(O)c(OC)c1)N(c1ccccc1)C3=O (stereo not given),"25.1 µM [falling, partial curve]"
14,COc1ccc(OCC(=O)N(Cc2cccs2)c2ccc(OC)cc2)cc1,"12.6 µM [falling, partial curve]"
15,CCOC(=O)c1nnn(-c2nonc2N)c1CSc1ccc(C)cc1,"20 µM [falling, partial curve]"
16,CCOCCCNc1nc2ccccc2n2c(CC)nnc12,"10 µM [falling, partial curve]"
17,CCOc1ccccc1CNC(=O)c1ccc(NC(=O)N2CC(C)Sc3ccccc32)cc1 (stereo not given),"10 µM [falling, partial curve]"
18,O=C(NC1(C(F)(F)F)C(=O)Nc2c1c(=O)[nH]c(=O)n2-c1ccccc1)c1ccccc1 (stereo not given),"0.0126 µM [rising, full curve, poor fit]"
19,COc1ccc(OC)c(CNC(=O)CN(c2ccc(C)cc2)S(=O)(=O)N(C)C)c1,"25.1 µM [falling, single point]"
20,CCCN(C(=O)Cn1ncc2c1-c1ccccc1OC2)c1cccc(C)c1,"31.6 µM [falling, partial curve, poor fit]"

row,SMILES,AC50
1,O=C(Nc1ccc2c(c1)OCCO2)c1ccc(Br)c(S(=O)(=O)N2CCOCC2)c1,"5.01 µM [falling, partial curve]"
2,CCc1ccc(-c2nc(SCC(=O)NCC3CCCO3)c(-c3ccc(C)cc3)[nH]2)cc1 (stereo not given),"0.0501 µM [falling, full curve, poor fit]"
3,Cc1cccc(C)c1NC(=O)Cn1c(=O)n(CCCS(=O)(=O)C2CCCCC2)c(=O)c2ccccc21,"3.98 µM [rising, single point]"
4,Cc1cccc(N2CCN(c3ccc(C(=O)O)cc3NC(=O)c3cccc(Cl)c3)CC2C)c1 (stereo not given),"10 µM [falling, partial curve]"
5,O=C(CSc1nccn1C1CCCC1)Nc1cccc(F)c1,"1.26 µM [rising, full curve]"
6,CSCC[C@@H](C(=O)Nc1cccc(F)c1)N1Cc2ccccc2C1=O,"31.6 µM [falling, single point]"
7,CCOC(=O)C1CCN(c2c(C(=O)c3ccc(OC)cc3)cnc3ccccc23)CC1,"31.6 µM [falling, single point]"
8,CCOC(=O)c1cc2c(=O)n3ccccc3nc2n(Cc2ccco2)c1=NC(=O)c1ccc(C)c(C)c1,"39.8 µM [falling, single point]"
9,CN(c1ccccc1)S(=O)(=O)c1nnc(NC(=O)COc2ccccc2)s1,"0.398 µM [rising, partial curve]"
10,Cc1cc(C)cc(-n2c(C)cc(C(=O)C(=O)Nc3nnc(C)s3)c2C)c1,"25.1 µM [falling, single point]"
11,CN(C(=O)Cn1cnc2onc(-c3ccc(F)cc3)c2c1=O)c1ccccc1Cl,"2.51 µM [falling, full curve, poor fit]"
12,O=[N+]([O-])c1cc(-c2nc(-c3ccco3)no2)ccc1NCc1ccccc1,"25.1 µM [falling, single point]"
13,Cc1ccc2nc(NC(=O)C3CCCN(S(=O)(=O)c4cccnc4)C3)sc2c1 (stereo not given),"12.6 µM [falling, partial curve]"
14,CC(=O)c1c(Nc2ccc3c(c2)OCCO3)oc(C)cc1=O,"7.94 µM [falling, partial curve]"
15,CCC(=O)Nc1cccc(-c2nc3ccccc3c(=O)o2)c1,"20 µM [falling, partial curve]"
16,COc1ccc(Cn2c(CO)cnc2SCc2ccc(F)cc2)cc1,"3.16 µM [falling, partial curve]"
17,Cc1cccc(-c2noc(CN(C(=O)CCc3ccccc3)C(C)C)n2)c1,"15.8 µM [falling, partial curve]"
18,Cc1ccc(Cl)cc1N1CCN(Cc2nnnn2C2CCCCC2)CC1,"25.1 µM [falling, partial curve]"
19,Cc1ccc(Cc2nc3ccccc3nc2SCC(=O)N2CCN(c3ccccc3)CC2)cc1,"7.94 µM [falling, partial curve]"
20,CCOc1ccccc1NC(=O)C1=C(C)Nc2ncnn2C1c1ccc(NC(C)=O)cc1 (stereo not given),"10 µM [falling, partial curve]"

# Random excerpt: 2 records from the list, in no set order.
row,SMILES,AC50
10,Cc1cc(C)cc(-n2c(C)cc(C(=O)C(=O)Nc3nnc(C)s3)c2C)c1,"25.1 µM [falling, single point]"
13,Cc1ccc2nc(NC(=O)C3CCCN(S(=O)(=O)c4cccnc4)C3)sc2c1 (stereo not given),"12.6 µM [falling, partial curve]"
